Measurements published in publication PMC11046803.
Results are given in words; binding and its absence hold for the method and conditions named. Binding seen in cells or lysates may run through a third protein. Some binding calls cover weakened binding; strength is not graded here.

The chains behind the UniProt entries cited, without tags or fusion partners.
UniProt O95817: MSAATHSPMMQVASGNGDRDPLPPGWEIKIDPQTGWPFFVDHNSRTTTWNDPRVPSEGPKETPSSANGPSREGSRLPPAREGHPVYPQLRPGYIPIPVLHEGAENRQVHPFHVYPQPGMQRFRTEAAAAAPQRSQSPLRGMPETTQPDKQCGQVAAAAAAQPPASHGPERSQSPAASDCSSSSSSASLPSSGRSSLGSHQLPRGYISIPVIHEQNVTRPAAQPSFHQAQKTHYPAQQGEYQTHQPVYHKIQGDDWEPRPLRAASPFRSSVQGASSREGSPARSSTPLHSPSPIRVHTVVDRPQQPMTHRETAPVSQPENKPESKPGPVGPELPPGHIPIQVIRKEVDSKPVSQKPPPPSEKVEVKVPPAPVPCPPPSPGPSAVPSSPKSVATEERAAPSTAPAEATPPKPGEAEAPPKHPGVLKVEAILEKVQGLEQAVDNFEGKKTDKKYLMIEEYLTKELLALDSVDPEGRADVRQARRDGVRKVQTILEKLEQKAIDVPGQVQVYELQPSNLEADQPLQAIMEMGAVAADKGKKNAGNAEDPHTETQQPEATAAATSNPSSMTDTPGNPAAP
UniProt P40763: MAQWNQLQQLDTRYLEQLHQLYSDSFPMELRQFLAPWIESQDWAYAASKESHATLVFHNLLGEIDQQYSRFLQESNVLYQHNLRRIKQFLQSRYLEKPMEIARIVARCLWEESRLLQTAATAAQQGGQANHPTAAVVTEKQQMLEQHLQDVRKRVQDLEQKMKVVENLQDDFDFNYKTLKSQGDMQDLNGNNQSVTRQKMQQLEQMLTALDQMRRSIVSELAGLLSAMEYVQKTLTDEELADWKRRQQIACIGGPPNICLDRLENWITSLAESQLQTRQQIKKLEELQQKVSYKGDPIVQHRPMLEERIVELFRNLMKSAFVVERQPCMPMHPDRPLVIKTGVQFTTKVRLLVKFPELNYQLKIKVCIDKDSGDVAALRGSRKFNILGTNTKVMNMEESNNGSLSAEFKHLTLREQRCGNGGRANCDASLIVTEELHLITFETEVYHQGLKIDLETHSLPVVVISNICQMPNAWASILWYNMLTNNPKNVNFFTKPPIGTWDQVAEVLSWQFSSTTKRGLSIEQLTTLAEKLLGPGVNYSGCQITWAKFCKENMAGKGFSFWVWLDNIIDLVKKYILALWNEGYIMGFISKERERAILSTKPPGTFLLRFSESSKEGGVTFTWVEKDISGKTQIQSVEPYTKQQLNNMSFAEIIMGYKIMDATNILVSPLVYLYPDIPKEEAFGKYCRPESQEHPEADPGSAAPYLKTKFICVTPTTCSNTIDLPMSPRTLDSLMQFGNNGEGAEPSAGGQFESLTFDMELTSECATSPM

Target: Bcl-2-associated athanogene 3 (BAG3) protein (human (endogenous in HASMC)) (UniProt O95817)
Assay: co-IP; HASMC lysates, endogenous proteins; untreated, after transfection of Flag-BAG3, after siBAG3, with or without AGEs; 2 mg total protein in 800 µl, 2 µl primary antibody 3 h, Protein A/G beads overnight at 4℃; Western blot

Substance: signal transducer and activator of transcription 3 (STAT3) (from UniProt P40763 1-770)
- binding: binds
